Conditions in all cases: 24 h
The subject of experiment [1] is Human fetal astrocytes. Put plainly: synaptosome phagocytosis (pHrodo/calcein intensity ratio) relative to plate median of data wells; higher = more phagocytosis.
Experiment [2] deals with Human fetal astrocytes. Put plainly: loss of total cells relative to no-compound high-control median (toxicity); higher = more toxic (fewer cells).
The test system of experiment [3] is Human fetal astrocytes. Kind of experiment: synaptosome phagocytosis (pHrodo/calcein intensity ratio) relative to plate median of data wells; higher = more phagocytosis. The source holds these as a separate data set.

Each structure is given as a SMILES string. Some of the results follow. Single values are uncertain, as repeats are few or missing.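 Labelled rat cortical synaptosomes were engulfed by primary human fetal astrocytes. Engulfment equaled a red/green ratio, corrected for calcein live-cell signal and normalized to the plate median. Compounds were toxic when calcein dropped over 30%, and reduced phagocytosis when below 70% of the median above 5 µM.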

The values below come from the supplement of paper PMC10689618.

In the case of `CC(=O)Oc1ccc(Cl)c2cccnc12`, the synaptosome phagocytosis was 124% in experiment [1] (1.39 µM); 110% in experiment [1] (2.78 µM); 82.1% in experiment [1] (5.56 µM); 90.1% in experiment [1] (11.11 µM); 55.9% in experiment [1] (22.22 µM).
`C=C(C)[C@@H]1[C@H]2OC(=O)[C@@H]1[C@]1(O)C[C@H]3O[C@]34C(=O)O[C@H]2[C@]14C`: the synaptosome phagocytosis in experiment [1] (1.39 µM) was 83.1%; in experiment [1] (2.78 µM), 108%; in experiment [1] (5.56 µM), 139%; in experiment [1] (11.11 µM), 130%; in experiment [1] (22.22 µM), 136%.
Regarding `C[C@@H]1O[C@@H](O[C@H]2CC[C@]3(C=O)[C@H]4CC[C@]5(C)[C@@H](C6=CC(=O)OC6)CC[C@]5(O)[C@@H]4CC[C@]3(O)C2)[C@H](O)[C@H](O)[C@H]1O`, the “loss of total cells” value in experiment [2] (1.39 µM) was -1.6%; in experiment [2] (2.78 µM), 2.5%; in experiment [2] (5.56 µM) it was 11%; in experiment [2] (11.11 µM), 16.9%; in experiment [2] (22.22 µM), 5.2%.
Take `C=C(C)[C@@H]1[C@H]2OC(=O)[C@@H]1[C@]1(O)C[C@H]3OC34C(=O)O[C@H]2[C@@]41C.CC(C)(O)[C@@H]1[C@H]2OC(=O)[C@@H]1[C@]1(O)C[C@H]3OC34C(=O)O[C@H]2[C@@]41C` (stereo not given in full) [Picrotoxin]: the synaptosome phagocytosis in experiment [3] (1.39 µM) is 84.2%; in experiment [3] (2.78 µM), 123%; in experiment [3] (5.56 µM), 97.9%; in experiment [3] (11.11 µM), 77.4%; in experiment [3] (22.22 µM), 137%.
